These are yes or no findings as the source states them, for the method shown. In cells and extracts the contact can be indirect. Some results given as binding are weak or reduced against the parent protein; the word gives no strength.
Target: Brain Angiogenesis Inhibitor 1 (BAI1, ADGRB1), endogenous in hNSC (human (endogenous in hNSC)) (UniProt O14514)
Experiment: proximity ligation; both proteins endogenous in hNSC (BAI1 WT and BAI1 KO), cells treated with C1q or growth medium, fixed with 4% PFA, permeabilised; Duolink In Situ PLA, punctae per cell

The chains behind the UniProt entries cited, without tags or fusion partners. Residues count along the entry.
UniProt O14514, residues 31-1584: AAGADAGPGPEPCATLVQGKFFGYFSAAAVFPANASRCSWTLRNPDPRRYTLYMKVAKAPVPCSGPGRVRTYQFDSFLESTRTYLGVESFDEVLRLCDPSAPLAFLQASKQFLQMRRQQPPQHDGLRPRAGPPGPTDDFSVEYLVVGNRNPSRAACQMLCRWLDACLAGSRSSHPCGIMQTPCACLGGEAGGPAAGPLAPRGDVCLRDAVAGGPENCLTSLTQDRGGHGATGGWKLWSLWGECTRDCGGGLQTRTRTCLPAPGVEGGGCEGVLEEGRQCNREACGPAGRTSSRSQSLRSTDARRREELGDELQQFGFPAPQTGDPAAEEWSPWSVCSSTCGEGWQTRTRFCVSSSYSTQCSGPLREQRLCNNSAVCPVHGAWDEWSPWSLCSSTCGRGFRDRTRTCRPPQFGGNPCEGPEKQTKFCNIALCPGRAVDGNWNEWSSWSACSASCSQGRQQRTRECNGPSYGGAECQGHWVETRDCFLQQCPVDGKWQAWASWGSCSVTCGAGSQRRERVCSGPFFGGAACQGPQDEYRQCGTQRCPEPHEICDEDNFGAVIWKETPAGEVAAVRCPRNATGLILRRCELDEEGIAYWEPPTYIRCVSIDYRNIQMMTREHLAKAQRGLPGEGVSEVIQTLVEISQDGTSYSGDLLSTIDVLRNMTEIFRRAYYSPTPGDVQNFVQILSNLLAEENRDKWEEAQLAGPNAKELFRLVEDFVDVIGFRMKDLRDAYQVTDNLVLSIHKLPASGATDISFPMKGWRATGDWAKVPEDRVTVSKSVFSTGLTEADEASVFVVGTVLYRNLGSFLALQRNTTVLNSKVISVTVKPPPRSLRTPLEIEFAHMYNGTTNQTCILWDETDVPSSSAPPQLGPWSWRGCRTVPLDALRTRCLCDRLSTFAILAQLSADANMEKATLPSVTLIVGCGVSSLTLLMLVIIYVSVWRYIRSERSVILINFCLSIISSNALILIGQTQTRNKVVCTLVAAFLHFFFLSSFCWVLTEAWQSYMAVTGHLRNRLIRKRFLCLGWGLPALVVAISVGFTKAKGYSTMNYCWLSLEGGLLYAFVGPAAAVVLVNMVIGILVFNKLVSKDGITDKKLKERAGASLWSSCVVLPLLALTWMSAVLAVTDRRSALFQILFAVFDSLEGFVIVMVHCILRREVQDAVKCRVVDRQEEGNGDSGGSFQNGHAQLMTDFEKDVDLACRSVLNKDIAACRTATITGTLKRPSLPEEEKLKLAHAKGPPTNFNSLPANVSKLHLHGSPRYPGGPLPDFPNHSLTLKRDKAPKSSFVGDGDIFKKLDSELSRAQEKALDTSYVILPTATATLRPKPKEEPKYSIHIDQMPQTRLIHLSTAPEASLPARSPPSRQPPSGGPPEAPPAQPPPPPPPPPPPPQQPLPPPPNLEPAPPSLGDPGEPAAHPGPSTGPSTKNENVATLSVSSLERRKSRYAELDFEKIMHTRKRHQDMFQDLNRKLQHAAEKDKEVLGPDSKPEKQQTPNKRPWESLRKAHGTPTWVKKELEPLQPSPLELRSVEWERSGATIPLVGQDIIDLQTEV
UniProt Q00987: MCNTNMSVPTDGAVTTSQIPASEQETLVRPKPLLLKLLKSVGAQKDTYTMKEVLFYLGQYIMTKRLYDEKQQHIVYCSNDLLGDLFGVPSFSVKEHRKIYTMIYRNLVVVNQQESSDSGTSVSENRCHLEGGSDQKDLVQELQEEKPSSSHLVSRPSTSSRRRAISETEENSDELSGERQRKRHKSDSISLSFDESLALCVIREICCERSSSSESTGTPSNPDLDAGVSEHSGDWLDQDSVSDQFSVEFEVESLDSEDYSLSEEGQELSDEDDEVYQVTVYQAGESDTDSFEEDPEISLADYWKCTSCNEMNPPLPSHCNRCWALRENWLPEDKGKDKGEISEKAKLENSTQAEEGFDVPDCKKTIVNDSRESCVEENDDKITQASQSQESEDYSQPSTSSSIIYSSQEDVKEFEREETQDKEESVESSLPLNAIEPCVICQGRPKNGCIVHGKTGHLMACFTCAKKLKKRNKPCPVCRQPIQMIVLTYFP

- binding: binds
Substance: MDM2, endogenous in hNSC (from UniProt Q00987 1-491)
